Data as given in patent publication EP2703005A1, “Inhibitors of alpha6 Integrin/E-Cadherin Complex” (Università Degli Studi Di Torino, priority 2012, dated 2014).
Results are given in words; binding and its absence hold for the method and conditions named. Binding seen in cells or lysates may run through a third protein. Some binding calls cover weakened binding; strength is not graded here. Where a sequence is shown, tags or fusion partners need not be part of it.

Protein sequences, listed by entry. Tags and fused reporters are not part of them. Residues count along the entry.
UniProt Q00839, residues 2-825: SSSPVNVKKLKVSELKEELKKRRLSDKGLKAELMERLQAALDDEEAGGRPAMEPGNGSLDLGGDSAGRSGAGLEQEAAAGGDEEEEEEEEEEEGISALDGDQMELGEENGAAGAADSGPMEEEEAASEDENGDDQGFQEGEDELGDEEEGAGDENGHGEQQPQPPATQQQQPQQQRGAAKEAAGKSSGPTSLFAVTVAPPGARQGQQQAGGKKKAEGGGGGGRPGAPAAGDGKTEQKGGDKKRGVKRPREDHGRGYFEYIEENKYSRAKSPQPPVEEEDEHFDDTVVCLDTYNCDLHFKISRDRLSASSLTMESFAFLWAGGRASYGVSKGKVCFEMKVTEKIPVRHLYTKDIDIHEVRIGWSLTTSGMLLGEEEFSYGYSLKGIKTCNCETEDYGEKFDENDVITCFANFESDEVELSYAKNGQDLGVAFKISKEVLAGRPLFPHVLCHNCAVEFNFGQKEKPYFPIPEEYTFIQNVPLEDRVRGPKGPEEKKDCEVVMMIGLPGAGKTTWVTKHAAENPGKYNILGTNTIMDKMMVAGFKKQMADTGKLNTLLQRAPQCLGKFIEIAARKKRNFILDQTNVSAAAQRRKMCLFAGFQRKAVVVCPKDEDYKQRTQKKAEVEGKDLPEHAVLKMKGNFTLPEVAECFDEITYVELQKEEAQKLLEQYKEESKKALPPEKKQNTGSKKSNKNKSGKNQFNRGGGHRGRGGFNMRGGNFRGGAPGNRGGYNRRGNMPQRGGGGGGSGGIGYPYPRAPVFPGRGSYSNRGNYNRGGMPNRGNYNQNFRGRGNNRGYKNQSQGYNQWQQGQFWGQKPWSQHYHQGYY
UniProt P19338, residues 2-710: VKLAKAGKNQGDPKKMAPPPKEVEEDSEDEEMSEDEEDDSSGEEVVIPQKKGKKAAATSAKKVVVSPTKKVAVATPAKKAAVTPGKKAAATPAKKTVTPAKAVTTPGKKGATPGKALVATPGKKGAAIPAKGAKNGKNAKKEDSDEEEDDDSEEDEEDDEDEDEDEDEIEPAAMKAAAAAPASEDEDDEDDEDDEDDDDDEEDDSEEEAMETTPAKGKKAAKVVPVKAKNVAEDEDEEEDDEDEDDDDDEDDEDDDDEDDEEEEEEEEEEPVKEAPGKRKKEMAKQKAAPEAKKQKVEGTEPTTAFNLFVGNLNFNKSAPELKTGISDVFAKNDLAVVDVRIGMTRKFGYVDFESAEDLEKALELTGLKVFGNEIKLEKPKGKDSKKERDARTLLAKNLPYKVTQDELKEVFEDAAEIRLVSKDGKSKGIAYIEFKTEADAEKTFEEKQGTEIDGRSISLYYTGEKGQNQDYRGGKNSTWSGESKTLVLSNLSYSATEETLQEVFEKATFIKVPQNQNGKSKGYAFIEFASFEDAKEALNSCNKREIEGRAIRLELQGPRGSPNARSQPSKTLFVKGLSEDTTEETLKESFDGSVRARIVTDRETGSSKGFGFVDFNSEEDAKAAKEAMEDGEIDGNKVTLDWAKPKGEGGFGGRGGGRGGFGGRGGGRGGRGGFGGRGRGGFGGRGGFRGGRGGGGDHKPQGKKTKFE
UniProt O00159: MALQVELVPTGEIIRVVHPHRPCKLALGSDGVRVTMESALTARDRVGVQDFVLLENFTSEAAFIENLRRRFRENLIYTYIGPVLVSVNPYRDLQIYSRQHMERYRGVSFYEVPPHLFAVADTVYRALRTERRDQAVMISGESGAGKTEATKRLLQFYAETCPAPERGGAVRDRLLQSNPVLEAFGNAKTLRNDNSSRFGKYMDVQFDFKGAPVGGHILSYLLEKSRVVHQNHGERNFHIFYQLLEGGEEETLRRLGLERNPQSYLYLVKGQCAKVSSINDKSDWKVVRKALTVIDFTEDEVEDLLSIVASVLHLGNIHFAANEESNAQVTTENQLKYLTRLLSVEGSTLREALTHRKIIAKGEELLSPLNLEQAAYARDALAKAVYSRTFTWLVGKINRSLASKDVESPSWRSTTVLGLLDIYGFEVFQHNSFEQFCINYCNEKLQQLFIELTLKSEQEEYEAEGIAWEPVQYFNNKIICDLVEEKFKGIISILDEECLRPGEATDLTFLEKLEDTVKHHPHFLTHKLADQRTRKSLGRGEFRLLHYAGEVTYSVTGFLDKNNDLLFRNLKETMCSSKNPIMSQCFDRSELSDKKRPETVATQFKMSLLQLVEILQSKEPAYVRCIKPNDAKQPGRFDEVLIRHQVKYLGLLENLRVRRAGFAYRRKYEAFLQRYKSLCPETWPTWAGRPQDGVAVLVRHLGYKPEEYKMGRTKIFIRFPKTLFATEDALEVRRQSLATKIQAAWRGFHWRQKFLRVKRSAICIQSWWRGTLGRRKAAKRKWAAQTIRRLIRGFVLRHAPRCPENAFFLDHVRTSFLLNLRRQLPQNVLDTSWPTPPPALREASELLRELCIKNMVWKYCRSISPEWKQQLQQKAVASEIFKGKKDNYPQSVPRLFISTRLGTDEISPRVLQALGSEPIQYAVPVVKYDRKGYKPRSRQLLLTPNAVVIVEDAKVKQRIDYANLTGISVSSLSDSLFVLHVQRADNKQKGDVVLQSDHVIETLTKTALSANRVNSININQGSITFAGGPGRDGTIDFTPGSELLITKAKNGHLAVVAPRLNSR
UniProt Q7Z406, residues 2-1995: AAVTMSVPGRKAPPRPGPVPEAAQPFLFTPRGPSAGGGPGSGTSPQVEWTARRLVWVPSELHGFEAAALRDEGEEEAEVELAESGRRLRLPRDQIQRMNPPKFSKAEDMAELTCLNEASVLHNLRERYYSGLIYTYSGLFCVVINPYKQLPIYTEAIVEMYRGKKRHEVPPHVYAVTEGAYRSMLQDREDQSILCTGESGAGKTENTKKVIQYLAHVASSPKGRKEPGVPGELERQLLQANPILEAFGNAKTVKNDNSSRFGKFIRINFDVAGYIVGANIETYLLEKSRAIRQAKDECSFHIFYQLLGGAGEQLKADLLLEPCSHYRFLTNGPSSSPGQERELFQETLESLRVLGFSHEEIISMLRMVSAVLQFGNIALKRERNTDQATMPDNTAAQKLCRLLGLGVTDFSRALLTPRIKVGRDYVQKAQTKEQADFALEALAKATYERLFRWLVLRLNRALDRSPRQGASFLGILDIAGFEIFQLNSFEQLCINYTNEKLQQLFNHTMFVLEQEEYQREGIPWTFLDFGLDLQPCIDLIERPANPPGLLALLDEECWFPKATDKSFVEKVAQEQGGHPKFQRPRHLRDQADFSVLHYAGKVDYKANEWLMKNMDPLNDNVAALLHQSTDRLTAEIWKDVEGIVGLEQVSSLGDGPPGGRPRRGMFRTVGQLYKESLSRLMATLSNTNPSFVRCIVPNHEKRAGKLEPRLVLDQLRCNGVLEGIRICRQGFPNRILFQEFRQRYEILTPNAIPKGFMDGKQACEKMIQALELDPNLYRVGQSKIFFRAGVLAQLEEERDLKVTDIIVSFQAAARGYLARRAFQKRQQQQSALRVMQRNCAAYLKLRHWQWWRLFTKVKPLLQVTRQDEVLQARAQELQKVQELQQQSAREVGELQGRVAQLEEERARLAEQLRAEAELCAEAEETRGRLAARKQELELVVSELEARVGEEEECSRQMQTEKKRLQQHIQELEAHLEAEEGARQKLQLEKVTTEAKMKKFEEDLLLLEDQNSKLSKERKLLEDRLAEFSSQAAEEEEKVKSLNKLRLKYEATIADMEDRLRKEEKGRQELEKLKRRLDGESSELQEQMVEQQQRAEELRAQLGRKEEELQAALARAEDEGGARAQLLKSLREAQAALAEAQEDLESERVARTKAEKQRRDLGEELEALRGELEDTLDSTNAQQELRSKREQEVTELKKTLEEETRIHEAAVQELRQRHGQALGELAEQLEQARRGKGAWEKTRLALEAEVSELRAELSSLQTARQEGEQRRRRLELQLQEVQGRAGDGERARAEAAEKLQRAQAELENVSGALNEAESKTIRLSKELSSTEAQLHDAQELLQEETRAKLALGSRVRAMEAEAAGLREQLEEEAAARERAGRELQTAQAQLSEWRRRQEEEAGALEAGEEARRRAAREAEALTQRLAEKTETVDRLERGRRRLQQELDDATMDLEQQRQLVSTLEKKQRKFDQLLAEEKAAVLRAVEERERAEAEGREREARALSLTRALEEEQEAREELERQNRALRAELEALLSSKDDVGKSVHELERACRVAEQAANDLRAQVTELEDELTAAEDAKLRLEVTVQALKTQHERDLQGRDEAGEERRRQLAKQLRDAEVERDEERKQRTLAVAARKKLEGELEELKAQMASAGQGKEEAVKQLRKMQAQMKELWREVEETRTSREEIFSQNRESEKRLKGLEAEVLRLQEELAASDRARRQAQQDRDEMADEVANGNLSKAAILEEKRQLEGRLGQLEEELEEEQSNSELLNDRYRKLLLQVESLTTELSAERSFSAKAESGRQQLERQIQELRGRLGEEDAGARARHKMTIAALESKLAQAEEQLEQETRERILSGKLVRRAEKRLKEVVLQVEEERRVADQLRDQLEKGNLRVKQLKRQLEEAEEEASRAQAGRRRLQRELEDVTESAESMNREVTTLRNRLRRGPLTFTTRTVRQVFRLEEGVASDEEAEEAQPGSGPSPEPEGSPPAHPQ

Columns and labels:
[1] = target: T1, NADPH-carbonyl reductase (human) (UniProt P16152); assay: GST pull-down from NCI-H630 lysate (HepG2 lysate as control), LC-MS/MS; MASCOT score 74
T1 sequence (looked up): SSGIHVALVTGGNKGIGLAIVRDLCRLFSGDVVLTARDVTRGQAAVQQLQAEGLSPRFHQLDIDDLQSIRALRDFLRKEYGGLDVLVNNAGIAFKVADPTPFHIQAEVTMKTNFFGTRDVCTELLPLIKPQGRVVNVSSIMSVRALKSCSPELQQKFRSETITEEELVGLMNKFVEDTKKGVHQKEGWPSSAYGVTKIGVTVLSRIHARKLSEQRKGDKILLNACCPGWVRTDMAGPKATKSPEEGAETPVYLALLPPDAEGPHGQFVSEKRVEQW

hnRNP U (human) = hnRNP U (human) (UniProt Q00839); assay: GST pull-down from NCI-H630 lysate (HepG2 lysate as control), LC-MS/MS; MASCOT score 124
nucleolin (human) = nucleolin (human) (UniProt P19338); assay: GST pull-down from NCI-H630 lysate (HepG2 lysate as control), LC-MS/MS; MASCOT score 236
tropomodulin-3 (human) = target: T2, tropomodulin-3 (human) (UniProt Q9NYL9); assay: GST pull-down from NCI-H630 lysate (HepG2 lysate as control), LC-MS/MS; MASCOT score 758
T2 sequence (looked up): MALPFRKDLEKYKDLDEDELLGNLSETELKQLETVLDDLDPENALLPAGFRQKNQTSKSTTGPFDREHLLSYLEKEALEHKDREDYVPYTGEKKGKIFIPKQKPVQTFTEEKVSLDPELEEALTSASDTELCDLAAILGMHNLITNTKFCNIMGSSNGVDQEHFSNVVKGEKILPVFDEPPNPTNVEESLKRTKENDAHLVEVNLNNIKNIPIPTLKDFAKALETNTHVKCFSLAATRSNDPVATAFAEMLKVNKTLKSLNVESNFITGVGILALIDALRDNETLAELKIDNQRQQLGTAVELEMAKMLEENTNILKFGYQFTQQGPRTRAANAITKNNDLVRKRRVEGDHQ

[2] = target: myosin Ic (Myosin Iβ) (human) (UniProt O00159); assay: GST pull-down from NCI-H630 lysate (HepG2 lysate as control), LC-MS/MS; MASCOT score 908
villin-1 (human) = target: T3, villin-1 (human) (UniProt P09327); assay: GST pull-down from NCI-H630 lysate (HepG2 lysate as control), LC-MS/MS; MASCOT score 1782
T3 sequence (looked up): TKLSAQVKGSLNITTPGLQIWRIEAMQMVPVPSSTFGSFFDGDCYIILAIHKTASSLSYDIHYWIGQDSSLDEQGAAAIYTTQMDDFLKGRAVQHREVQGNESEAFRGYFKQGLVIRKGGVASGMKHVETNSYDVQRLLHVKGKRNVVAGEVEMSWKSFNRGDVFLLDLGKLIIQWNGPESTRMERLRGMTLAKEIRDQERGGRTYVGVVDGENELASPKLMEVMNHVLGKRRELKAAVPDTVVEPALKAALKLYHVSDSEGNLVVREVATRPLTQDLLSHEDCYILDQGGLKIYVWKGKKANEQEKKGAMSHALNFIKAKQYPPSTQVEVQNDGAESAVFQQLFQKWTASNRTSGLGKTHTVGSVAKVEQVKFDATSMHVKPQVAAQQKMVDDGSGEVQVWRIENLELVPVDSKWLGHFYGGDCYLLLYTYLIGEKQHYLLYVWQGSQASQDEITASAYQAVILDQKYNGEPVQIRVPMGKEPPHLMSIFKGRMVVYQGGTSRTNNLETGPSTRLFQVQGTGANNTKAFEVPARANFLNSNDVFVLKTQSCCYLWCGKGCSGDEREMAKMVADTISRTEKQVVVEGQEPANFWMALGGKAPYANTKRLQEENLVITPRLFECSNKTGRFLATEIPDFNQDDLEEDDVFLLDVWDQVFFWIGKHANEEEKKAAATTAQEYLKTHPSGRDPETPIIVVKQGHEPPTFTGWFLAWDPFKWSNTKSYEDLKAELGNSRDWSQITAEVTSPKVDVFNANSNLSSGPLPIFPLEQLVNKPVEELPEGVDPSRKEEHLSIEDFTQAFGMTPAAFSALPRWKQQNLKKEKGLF

myosin Id (human) = target: T4, myosin Id (human) (UniProt O94832); assay: GST pull-down from NCI-H630 lysate (HepG2 lysate as control), LC-MS/MS; MASCOT score 1804
T4 sequence (looked up): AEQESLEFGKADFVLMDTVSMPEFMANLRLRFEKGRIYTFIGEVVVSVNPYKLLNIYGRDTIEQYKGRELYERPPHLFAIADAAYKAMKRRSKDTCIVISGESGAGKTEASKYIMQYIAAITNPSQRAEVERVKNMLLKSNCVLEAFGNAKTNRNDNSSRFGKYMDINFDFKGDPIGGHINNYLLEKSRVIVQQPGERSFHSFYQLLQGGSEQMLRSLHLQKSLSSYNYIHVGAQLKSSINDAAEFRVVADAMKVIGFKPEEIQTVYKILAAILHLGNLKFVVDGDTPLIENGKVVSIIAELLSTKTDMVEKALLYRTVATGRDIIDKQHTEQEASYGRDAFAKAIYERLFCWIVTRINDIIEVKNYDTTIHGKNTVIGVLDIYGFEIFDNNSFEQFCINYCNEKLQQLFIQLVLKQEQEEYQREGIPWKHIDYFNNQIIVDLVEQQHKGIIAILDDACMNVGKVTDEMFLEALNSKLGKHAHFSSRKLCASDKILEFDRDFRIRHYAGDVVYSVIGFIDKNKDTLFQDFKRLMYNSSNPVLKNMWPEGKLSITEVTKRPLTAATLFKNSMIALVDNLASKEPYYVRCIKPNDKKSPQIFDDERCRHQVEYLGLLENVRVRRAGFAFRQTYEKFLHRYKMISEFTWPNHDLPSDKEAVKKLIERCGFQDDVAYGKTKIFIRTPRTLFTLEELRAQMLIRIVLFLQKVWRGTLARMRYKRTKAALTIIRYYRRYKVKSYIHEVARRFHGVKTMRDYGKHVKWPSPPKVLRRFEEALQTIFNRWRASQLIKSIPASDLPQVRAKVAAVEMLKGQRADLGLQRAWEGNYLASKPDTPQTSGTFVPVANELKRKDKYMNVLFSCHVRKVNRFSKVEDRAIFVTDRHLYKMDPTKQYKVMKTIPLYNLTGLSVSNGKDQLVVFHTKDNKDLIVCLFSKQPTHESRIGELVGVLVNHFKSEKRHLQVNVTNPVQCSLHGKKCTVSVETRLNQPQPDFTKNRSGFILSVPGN

myosin-14 (human) = myosin-14 (human) (UniProt Q7Z406); assay: GST pull-down from NCI-H630 lysate (HepG2 lysate as control), LC-MS/MS; MASCOT score 2408

binding [1]: binds
binding (hnRNP U (human)): binds
binding (nucleolin (human)): binds
binding (tropomodulin-3 (human)): binds
binding [2]: binds
binding (villin-1 (human)): binds
binding (myosin Id (human)): binds
binding (myosin-14 (human)): binds
Binder: CGIYRLRSC (peptide, not shown: a dimerising Fc or GST) […-GST]
